Test results: US20230210853A1 (Halia Therapeutics, Inc., priority 2020, published 2023)
Structures were worked out from names or drawings and are uncertain.

Amino acid sequences for entries named in this document (tags omitted).
UniProt Q8TDX7, whole entry: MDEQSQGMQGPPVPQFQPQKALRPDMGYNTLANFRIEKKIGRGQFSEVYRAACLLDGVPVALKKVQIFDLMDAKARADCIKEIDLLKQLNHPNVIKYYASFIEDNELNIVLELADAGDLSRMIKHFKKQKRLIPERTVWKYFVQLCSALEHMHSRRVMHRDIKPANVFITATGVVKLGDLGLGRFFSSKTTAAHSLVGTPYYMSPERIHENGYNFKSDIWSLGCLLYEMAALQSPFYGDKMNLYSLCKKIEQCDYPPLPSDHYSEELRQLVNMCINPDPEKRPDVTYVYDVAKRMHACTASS

Legend:
[1] = target: full-length recombinant human NEK7 (Homo sapiens, UniProt Q8TDX7); test: NEK7 enzymatic assay ([33P]-ATP, casein substrate); details: read-out: NEK7 IC50, Table 2d
Method: In some embodiments, the IC50 of the compounds of Structure (I), (Ia), (Ib), (Ic), (Id), (Ie), or (If) to inhibit NEK7 was determined by the concentration of the compound required to inhibit 50% of the activity of the NEK kinase.
(§1) Casein substrate (from bovine milk, hydrolyzed and partially dephosphorylated mixture of α, β and κ caseins, obtained from Sigma Aldrich, catalogue #C4765, diluted in distilled water to a final concentration of 1 mg/mL) and full-length recombinant human NEK7 (expressed by baculovirus in Sf9 insect cells using a N-terminal GST tag, obtained from SignalChem, catalogue #N09-10G, 0.1 μg/μL) were mixed in assay buffer (20 mM Hepes pH 7.5, 10 mM MgCl2, 1 mM EGTA, 0.02% Brij35, 0.02 mg/ml BSA, 0.1 mM Na3 VO4, 2 mM DTT, 1% DMSO). Compounds of interest (serial 3-fold dilution in DMSO from 10 μM to 0.5 nM) or vehicle (1% DMSO) were dispensed into the kinase reaction mixture by Acoustic technology (Echo550, nanoliter range). After incubation at room temperature for 20 minutes, the kinase reaction was initiated by addition of [^33P]-ATP (specific activity 10 μCi/μl) and the mixture was incubated at room temperature for 2 hours. The reaction was then stopped by spotting the reaction mixture on strips of phosphocellulose P81 paper. Following washing, the radioactivity of the P81 paper was measured and kinase activity data were expressed as the percent remaining kinase activity in test samples compared to vehicle reactions. IC50 values and curve fits were obtained using Prism (GraphPad Software).
as §1, with “μg/L)” for “μg/μL)”, “Na3VO4,” for “Na3 VO4,”, “(Echo550;” for “(Echo550,”

[2] = system: IL-1β release; test: IL-1β release assay (PMA-differentiated THP-1 cells, LPS + nigericin, cleaved IL-1β by JESS); details: read-out: IL-1β release IC50, Table 2d
Method: Approximately 1.5 million THP-1 cells were plated in each well of a 6-well TC plate and incubated with 40 nM PMA in RPMI (10% FBS, 1% Penstrep) for 24 hours. The media was then removed and cells were rested in RPMI (10% FBS, 1% Penstrep) for 24 hours after which time the media was removed and cells were pre-treated for 2 hours with various concentrations of compounds of interest (typically serial 3-fold dilution in RPMI +5% FBS, concentrations ranging from 1 μM to 0.5 nM) in RPMI (5% FBS). The media was again removed and cells were incubated with 250 ng/mL LPS and compounds of interest (concentrations as above) in RMPI (5% FBS) for 2 hours. The media was removed for a last time and cells were incubated with 20 μM nigericin and compounds of interest (concentrations as above) in Opti-MEM for 30 minutes. Cell media was then collected and the amount of cleaved IL-1β was determined using a JESS instrument (Protein Simple) and standard protocols. Cleaved […] antibody was obtained from Cell Signaling (catalogue #83186S) and was used at 1:20 dilution in antibody diluent 2. […]
Approximately 1.5 million THP-1 cells were plated in each well of a 6-well TC plate and incubated with 40 nM PMA in RPMI (10% FBS, 1% Penstrep) for 24 hours. […] Cell media was then collected and the amount of cleaved IL-1β was determined using a JESS instrument (Protein Simple) and standard protocols. […]

| IC50 [1] [nM] | IC50 [2] [nM] | SMILES |
| --- | --- | --- |
| < 150 | – | CN1C[C@@H]2CN(Cc3ccc(NC(=O)Nc4ccc(-c5cn(C6CC6)c6ncnc(N)c56)cc4F)cc3C(F)(F)F)C[C@@H]2C1 |
| < 150 | – | CN1CCN(Cc2ccc(NC(=O)Nc3ccc(-c4cn(CC(C)(C)O)c5ncnc(N)c45)cc3F)cc2C(F)(F)F)CC1 |
| < 150 | < 150 | CN1CCN(Cc2ccc(NC(=O)Nc3ccc(-c4cn(C)c5ncnc(N)c45)cc3F)cc2C(F)(F)F)CC1 |
| > 1500 | – | CN1CCN(Cc2ccc(NC(=O)Nc3ccc(-c4cn(C5CC5)c5ncnc(N)c45)cc3F)c(C(F)(F)F)c2)CC1 |
| > 1500 | – | CC(c1ccc(NC(=O)Nc2ccc(-c3cn(C4CC4)c4ncnc(N)c34)cc2F)cc1C(F)(F)F)N1CCN(C)CC1 (centres unmarked) |
| 301 to 500 | – | CN1CCN(Cc2ccc(NC(=O)Nc3ccc(-c4cn(C5CC5)c5ncnc(N)c45)cc3F)cc2C(F)(F)F)C2(CC2)C1 |
| < 150 | – | CN1CCN(Cc2ccc(NC(=O)Nc3ccc(-c4cn(C5CC5)c5ncnc(N)c45)cn3)cc2C(F)(F)F)CC1 |
